According to patent publication US20120135917A1, “Anti-Gram Negative Bacteria Agent” (priority 2009, published 2012):
For at least one compound, name, drawing or mass did not settle the structure.

Test system: multidrug resistant Pseudomonas aeruginosa (MDRP)
Assay: Rabbit corneal ulcer model by Pseudomonas aeruginosa infection
Assay type: in vivo, Japanese white rabbits
Details: OFLX eye drops 0.3% alone (Group 2); ocular instillation; 12 hours after ulcer formation; compared to control group

## CC1COc2c(N3CCN(C)CC3)c(F)cc3c(=O)c(C(=O)O)cn1c23 (stereo not shown) [OFLX, ofloxacin]
  number of bacterial cells: increased
